Reference: patent publication US5892029A, “3-hydroxy-2(1H)-pyridinone chelating agents” (priority 1997, dated 1999)

Experiment: Liquid/liquid extraction of Pu(IV) from aqueous solution (Tables 7 and 8)
Method: Liquid/liquid extractions were performed with the radioactive plutonium isotope ^242 Pu at the Lawrence Livermore National Laboratory's Glenn T. Seaborg Institute for Transactinium Science, Livermore, Calif. The aqueous phase contained ^242 Pu, while the organic phases contained 3,2-HOPO ligands at 2-5 mM concentration. Kinetic studies were the primary method used to determine the efficacy of the specific ligand in organic solvent. Generally, five microcentrifuge tubes were prepared with the same organic and aqueous phases, and shaken with a vortex-style mixer for 1, 5, 10, and 20 minutes. After mixing, an aliquot of each phase was pipetted from the tube into a scintillation vial, mixed with a scintillation cocktail, and scintillation counted to determine the amount of the radioactive species present in each phase after extraction.

[1] = octanol, 0.10M aqueous, 1.0 min
[2] = octanol, 0.10M aqueous, 5.0 min
[3] = octanol, 0.10M aqueous, 10.0 min
[4] = octanol, 0.10M aqueous, 20.0 min
[5] = octanol, 5.0M aqueous, 10.0 min
[6] = octanol, 5.0M aqueous, 20.0 min

CCCCCCCCNC(=O)c1ccn(C)c(=O)c1O [Me-2-HOPO-Octylamide]
Decontamination Factor (MIBK, 0.10M aqueous, 1.0 min): 22.90 ± 0.59
Decontamination Factor (MIBK, 0.10M aqueous, 5.0 min): 12.22 ± 0.41
Decontamination Factor (MIBK, 0.10M aqueous, 10.0 min): 31.07 ± 0.68
Decontamination Factor (MIBK, 0.10M aqueous, 20.0 min): 28.56 ± 0.58
Decontamination Factor (MIBK, 5.0M aqueous, 1.0 min): 80.22 ± 0.91
Decontamination Factor (MIBK, 5.0M aqueous, 5.0 min): 54.99 ± 0.82
Decontamination Factor (MIBK, 5.0M aqueous, 10.0 min): 27.82 ± 0.64
Decontamination Factor (MIBK, 5.0M aqueous, 20.0 min): 6.20 ± 0.25
Decontamination Factor [1]: 17.83 ± 0.50
Decontamination Factor [2]: 18.10 ± 0.50
Decontamination Factor [3]: 12.71 ± 0.41
Decontamination Factor [4]: 11.32 ± 0.38
Decontamination Factor (octanol, 5.0M aqueous, 1.0 min): 45.22 ± 0.76
Decontamination Factor (octanol, 5.0M aqueous, 5.0 min): 37.91 ± 0.70
Decontamination Factor [5]: 20.78 ± 0.54
Decontamination Factor [6]: 11.69 ± 0.38

CCCCCCCCCCNC(=O)c1ccn(C)c(=O)c1O [Me-2-HOPO-Decylamide]
Decontamination Factor (MIBK, 0.10M aqueous, 1.0 min): 54.63 ± 0.85
Decontamination Factor (MIBK, 0.10M aqueous, 5.0 min): 24.40 ± 0.62
Decontamination Factor (MIBK, 0.10M aqueous, 10.0 min): 14.63 ± 0.46
Decontamination Factor (MIBK, 0.10M aqueous, 20.0 min): 6.97 ± 0.27
Decontamination Factor (MIBK, 5.0M aqueous, 1.0 min): 47.00 ± 0.79
Decontamination Factor (MIBK, 5.0M aqueous, 5.0 min): 47.62 ± 0.76
Decontamination Factor (MIBK, 5.0M aqueous, 10.0 min): 23.87 ± 0.58
Decontamination Factor (MIBK, 5.0M aqueous, 20.0 min): 5.52 ± 0.23
Decontamination Factor [1]: 3.22 ± 0.15
Decontamination Factor [2]: 26.39 ± 0.61
Decontamination Factor [3]: 20.71 ± 0.55
Decontamination Factor [4]: 13.11 ± 0.42
Decontamination Factor (octanol, 5.0M aqueous, 1.0 min): 57.64 ± 0.84
Decontamination Factor (octanol, 5.0M aqueous, 5.0 min): 27.98 ± 0.25
Decontamination Factor [5]: 15.74 ± 0.47
Decontamination Factor [6]: 8.51 ± 0.31
